Drawing on PubChem BioAssay AID248 (DTP/NCI, 2004), this text covers T/C and survivor count for 23 molecules.

The test system of this assay is L1210 leukemia ip in BDF1 mice, survival T/C. As to the kind of experiment: NCI In Vivo Anticancer Drug Screen. Data for tumor model L1210 Leukemia (intraperitoneal) in B6D2F1 (BDF1) mice. Conditions: T/C endpoint: mean survival time, higher T/C = longer survival.
[1] abbreviates: dose: 100.0 mg/kg/injection, schedule: Q04DX003 (ip), vehicle: saline.
Where [2] appears, read: dose: 200.0 mg/kg/injection, schedule: Q04DX003 (ip), vehicle: saline.
Where [3] appears, read: dose: 400.0 mg/kg/injection, schedule: Q04DX003 (ip), vehicle: saline.
Where [4] appears, read: dose: 400.0 mg/kg/injection, schedule: Q04DX003 (ip), vehicle: saline with Tween-80.
[5] abbreviates: dose: 200.0 mg/kg/injection, schedule: Q01DX001 (ip), vehicle: carboxymethylcellulose (CMC).
Setting [6] is: dose: 400.0 mg/kg/injection, schedule: Q01DX001 (ip), vehicle: carboxymethylcellulose (CMC).
Setting [7] is: dose: 200.0 mg/kg/injection, schedule: Q04DX003 (ip), vehicle: saline with Tween-80.
[8] abbreviates: dose: 200.0 mg/kg/injection, schedule: Q01DX009 (ip), vehicle: saline with Tween-80.
Setting [9] is: dose: 150.0 mg/kg/injection, schedule: Q01DX001 (ip), vehicle: carboxymethylcellulose (CMC).
Setting [10] is: dose: 300.0 mg/kg/injection, schedule: Q01DX001 (ip), vehicle: carboxymethylcellulose (CMC).
Setting [11] is: dose: 50.0 mg/kg/injection, schedule: Q01DX005 (ip), vehicle: saline.

The list shows only some results of the screen, not a fair sample: it is rich in T/C values a quarter to a half above the control, in often repeated tests (any T/C) and in doses without a T/C. Other doses and runs of a compound stand elsewhere. T/C: endpoint of the treated group in % of that of the vehicle group. Some entries give survivors of the animals treated and no T/C: the source holds a T/C of zero for them, seemingly a mark for toxic or unscored doses. Some survivor counts are full or nearly so, which does not show that the dose was tolerated: survival well below the control is almost never listed, so the zero probably covers shortened survival too. Survivors were counted at the toxicity check, usually on the fifth day, unless a day is given; later deaths do not show. Schedules are NCI's codes, taken here to give the interval after Q, in days (D) or hours (H), and the number of doses after X. Some schedules carry Z or #; the key to these is not given. Where survival is the endpoint, the PubChem record calls one and a half times the control and up active, and a quarter to a half above the control has no call in these data; cut-offs in other NCI protocols can differ. Some entries were tested several times; their values stand side by side, smallest first.

For `C[n+]1c2cc(N)ccc2cc2ccc(N)cc21`, the T/C was 126 and 130 % of control (dose: 8.0 mg/kg/injection, schedule: Q01DX009 (ip), vehicle: saline); 128 % of control (dose: 12.0 mg/kg/injection, schedule: Q01DX009 (ip), vehicle: saline); 130 % of control (dose: 12.5 mg/kg/injection, schedule: Q01DX009 (ip), vehicle: saline). The survivor count is 6 of 6 (dose: 18.0 mg/kg/injection, schedule: Q01DX009 (ip), vehicle: saline); 0 of 6 (dose: 25.0 mg/kg/injection, schedule: Q01DX009 (ip), vehicle: saline); 5 of 6 (dose: 25.0 mg/kg/injection, schedule: Q04DX003 (ip), vehicle: saline); 1 of 6 (dose: 50.0 mg/kg/injection, schedule: Q04DX003 (ip), vehicle: saline); 0 of 6 under setting [1]; 0 of 6 under setting [2]. For the same molecule, the survivor count under setting [3] is on record as 0 of 6.
In the case of `CC(=O)Nc1ncnc2c1ncn2Cc1ccccc1`, under setting [4], the survivor count was 6 of 6.
`CC(C(=O)N1c2ccccc2Sc2ccccc21)[N+]1(C)CCCC1` (stereo not given): the survivor count is 0 of 6 (dose: 100.0 mg/kg/injection, schedule: Q01DX009 (ip), vehicle: saline); 0 of 4 under setting [1]; 0 of 6 (dose: 200.0 mg/kg/injection, schedule: Q01DX009 (ip), vehicle: saline); 0 of 4 under setting [2]; 0 of 6 (dose: 400.0 mg/kg/injection, schedule: Q01DX009 (ip), vehicle: saline); 0 of 4 under setting [3].
`CC12CC3CC(C)(C1)CC(N)(C3)C2`: the survivor count runs as follows: (dose: 100.0 mg/kg/injection, schedule: Q01DX001 (ip), vehicle: carboxymethylcellulose (CMC)) 2 of 4; under setting [5], 0 of 4; under setting [6], 0 of 4.
Turning to `N#CC(C#N)=Cc1ccnc2ccccc12`, the survivor count under setting [7] is listed as 0 of 6 and the survivor count under setting [4] was 0 of 6.
Take `CCCCCCCC(=N)OCC`: the survivor count runs as follows: under setting [8], 2 of 6; (dose: 400.0 mg/kg/injection, schedule: Q01DX001 (ip), vehicle: saline with Tween-80) 0 of 6.
As to `CCN=C(N)c1ccc(NC(=O)Nc2ccc(NC(=O)Nc3ccc(C(N)=NCC)cc3)cc2)cc1`, the T/C (dose: 2.5 mg/kg/injection, schedule: Q01DX Z (ip), vehicle: water) is 130 % of control; the T/C (dose: 5.0 mg/kg/injection, schedule: Q01DX Z (ip), vehicle: water) was 148 % of control; the T/C (dose: 11.0 mg/kg/injection, schedule: Q01DX Z (ip), vehicle: water) was 145 % of control. Further, the survivor count by setting is: (dose: 22.0 mg/kg/injection, schedule: Q01DX Z (ip), vehicle: water) 6 of 6; (dose: 45.0 mg/kg/injection, schedule: Q01DX Z (ip), vehicle: water) 0 of 6; (dose: 91.0 mg/kg/injection, schedule: Q01DX Z (ip), vehicle: water) 0 of 6; (dose: 182.0 mg/kg/injection, schedule: Q01DX Z (ip), vehicle: water) 0 of 6; (dose: 364.0 mg/kg/injection, schedule: Q01DX Z (ip), vehicle: water) 0 of 6.
For `Cc1ccc(/C=N/N)s1`, the survivor count (dose: 400.0 mg/kg/injection, schedule: Q04DX003 (ip), vehicle: other) is on record as 6 of 6.
Regarding `C[C@]12CC[C@H](O)C[C@@]1(O)CC[C@@H]1[C@@H]2CC[C@]2(C)[C@@H](c3ccc(=O)oc3)CC[C@]12O`, the survivor count (dose: 100.0 mg/kg/injection, schedule: Q01DX009 (ip), vehicle: carboxymethylcellulose (CMC)) is recorded as 0 of 6; the survivor count under setting [5] was 0 of 6; the survivor count (dose: 200.0 mg/kg/injection, schedule: Q01DX009 (ip), vehicle: carboxymethylcellulose (CMC)) is recorded as 0 of 6; the survivor count under setting [6] is listed as 0 of 6.
Regarding `O=C(O)/C(S)=C\c1ccc(Cl)cc1`, the survivor count (dose: 400.0 mg/kg/injection, schedule: Q01DX001 (ip), vehicle: saline) is 2 of 4.
As for `CCC(C)(C)c1ccc(O)cc1`, the survivor count under setting [8] was 6 of 6.
In the case of `CNC(C)(C)C(SSSC(c1ccc(Cl)cc1)C(C)(C)NC)c1ccc(Cl)cc1` (stereo not given), the survivor count is 3 of 6 (dose: 75.0 mg/kg/injection, schedule: Q01DX009 (ip), vehicle: saline with Tween-80); 3 of 6 (dose: 100.0 mg/kg/injection, schedule: Q04DX003 (ip), vehicle: saline with Tween-80); 0 of 6 under setting [7]; 0 of 6 under setting [4].
For the molecule `COC(=O)c1ccccc1NC(=O)Nc1cccc(Cl)c1C`, under “dose: 400.0 mg/kg/injection, schedule: Q01DX009 (ip), vehicle: Klucel (hydroxypropylcellulose) (HPC)”, the survivor count is 0 of 6.
With `OC1CSC1.[Cl][Hg][Cl]`, the survivor count is recorded as 0 of 4 (dose: 40.0 mg/kg/injection, schedule: Q01DX001 (ip), vehicle: carboxymethylcellulose (CMC)) and 0 of 4 (dose: 80.0 mg/kg/injection, schedule: Q01DX001 (ip), vehicle: carboxymethylcellulose (CMC)).
For `CCCCCCCCCCCCCCCCSCCOC(=O)C1C2CCC(O2)C1C(=O)O` (stereo not given), the survivor count (dose: 100.0 mg/kg/injection, schedule: Q01DX001 (ip), vehicle: Klucel (hydroxypropylcellulose) (HPC)) was 1 of 6; the survivor count (dose: 200.0 mg/kg/injection, schedule: Q01DX001 (ip), vehicle: Klucel (hydroxypropylcellulose) (HPC)) is 0 of 6; the survivor count (dose: 400.0 mg/kg/injection, schedule: Q01DX001 (ip), vehicle: Klucel (hydroxypropylcellulose) (HPC)) is 1 of 6.
Take `CC[N+](C)(CC)CCOc1cc(C)ccc1C(C)C`: the survivor count under setting [2] was 0 of 6.
Regarding `CCOC(=O)C(NNc1ccccc1)C(c1ccccc1)[P+](c1ccccc1)(c1ccccc1)c1ccccc1` (stereo not given), the survivor count is, setting by setting: under setting [9], 0 of 6; under setting [10], 0 of 6.
In the case of `NC(N)=N/N=C(/c1ccccc1)c1ccccc1F`, the survivor count (dose: 960.0 mg/kg/injection, schedule: Q01DX Z (oral), vehicle: saline) was 6 of 6.
Regarding `O=C(O)c1cccc(F)c1CBr`, the survivor count under setting [9] was 2 of 6 and the survivor count under setting [10] is recorded as 1 of 6.
For `Cc1cnc(SCc2ccc(Cl)cc2)[nH]c1=S`, the survivor count reads like this: (dose: 100.0 mg/kg/injection, schedule: Q01DX Z (ip), vehicle: methylcellulose (MC)) 6 of 6; (dose: 200.0 mg/kg/injection, schedule: Q01DX Z (ip), vehicle: methylcellulose (MC)) 6 of 6.
On to `CCO/C([O-])=C/[P+](c1ccccc1)(c1ccccc1)c1ccccc1`, for which the survivor count runs as follows: (dose: 100.0 mg/kg/injection, schedule: Q04DX003 (ip), vehicle: Klucel (hydroxypropylcellulose) (HPC)) 3 of 6; (dose: 200.0 mg/kg/injection, schedule: Q04DX003 (ip), vehicle: Klucel (hydroxypropylcellulose) (HPC)) 0 of 6; (dose: 400.0 mg/kg/injection, schedule: Q04DX003 (ip), vehicle: Klucel (hydroxypropylcellulose) (HPC)) 0 of 6.
As for `NC(=O)c1cn(C2OC(CO)C(O)C2O)c2ncn3ccnc3c12` (stereo not given), the survivor count is on record as 3 of 4 (dose: 25.0 mg/kg/injection, schedule: Q01DX005 (ip), vehicle: saline); 3 of 4 under setting [11]; 0 of 6 (dose: 100.0 mg/kg/injection, schedule: Q01DX005 (ip), vehicle: saline); 0 of 6 (dose: 200.0 mg/kg/injection, schedule: Q01DX005 (ip), vehicle: saline).
`NCCc1cn(C2OC(CO)C(O)C(O)C2O)c2ccccc12` (stereo not given): under setting [11], the survivor count is on record as 4 of 4.
